Numbering of substitutions follows the chain as printed. These are yes or no findings as the source states them, for the method shown. Binding seen in cells or lysates may run through a third protein. Some results given as binding are weak or reduced against the parent protein; the word gives no strength. Where a sequence is shown, tags or fusion partners need not be part of it.
How the values were obtained:
[1] = target: T1, HA-Ste11 R305A (non-methylatable mutant) (S. cerevisiae) (UniProt P23561); experiment: co-IP; yeast extract (200 ug) on anti-HA magnetic beads, 4°C, 30 min; 50 mM Na-phosphate pH 8.0, 300 mM NaCl, 0.01% Tween-20; western blot
T1 sequence: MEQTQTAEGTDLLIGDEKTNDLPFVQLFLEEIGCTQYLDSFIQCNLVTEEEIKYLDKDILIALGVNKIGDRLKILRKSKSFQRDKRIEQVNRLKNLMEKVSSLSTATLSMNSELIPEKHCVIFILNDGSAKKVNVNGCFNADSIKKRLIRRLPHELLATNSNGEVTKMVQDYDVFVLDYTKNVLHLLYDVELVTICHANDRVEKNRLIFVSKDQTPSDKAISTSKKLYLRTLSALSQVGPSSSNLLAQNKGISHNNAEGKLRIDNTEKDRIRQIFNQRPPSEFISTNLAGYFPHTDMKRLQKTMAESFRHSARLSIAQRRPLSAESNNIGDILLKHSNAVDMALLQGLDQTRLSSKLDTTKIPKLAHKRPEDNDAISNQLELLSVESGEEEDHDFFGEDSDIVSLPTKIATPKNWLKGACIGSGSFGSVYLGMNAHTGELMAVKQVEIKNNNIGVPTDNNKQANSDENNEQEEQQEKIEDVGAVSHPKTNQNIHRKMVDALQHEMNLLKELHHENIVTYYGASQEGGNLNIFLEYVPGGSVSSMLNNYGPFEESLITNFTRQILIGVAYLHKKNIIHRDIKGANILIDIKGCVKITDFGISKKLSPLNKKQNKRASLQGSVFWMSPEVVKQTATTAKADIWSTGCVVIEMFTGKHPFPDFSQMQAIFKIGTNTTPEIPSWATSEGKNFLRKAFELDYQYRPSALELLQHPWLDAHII

Chains of the proteins cited; added tags and fusions are not shown.
UniProt P10591: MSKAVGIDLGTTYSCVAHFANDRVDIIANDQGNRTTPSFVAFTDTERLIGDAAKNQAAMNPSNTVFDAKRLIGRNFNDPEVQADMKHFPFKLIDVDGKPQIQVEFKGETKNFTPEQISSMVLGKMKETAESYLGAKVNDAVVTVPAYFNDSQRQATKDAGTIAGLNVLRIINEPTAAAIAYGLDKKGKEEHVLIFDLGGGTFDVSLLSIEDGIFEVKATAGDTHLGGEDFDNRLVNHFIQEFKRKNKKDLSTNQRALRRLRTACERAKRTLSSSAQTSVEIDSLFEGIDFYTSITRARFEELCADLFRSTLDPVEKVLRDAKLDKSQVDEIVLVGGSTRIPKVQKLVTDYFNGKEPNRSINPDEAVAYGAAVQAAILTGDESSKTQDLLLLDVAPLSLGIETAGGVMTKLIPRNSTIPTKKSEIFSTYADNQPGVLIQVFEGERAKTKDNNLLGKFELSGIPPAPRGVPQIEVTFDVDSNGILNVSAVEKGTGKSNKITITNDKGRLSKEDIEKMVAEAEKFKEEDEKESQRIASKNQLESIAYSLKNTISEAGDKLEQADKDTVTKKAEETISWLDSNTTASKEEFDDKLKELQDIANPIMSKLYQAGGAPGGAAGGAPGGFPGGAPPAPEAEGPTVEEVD
UniProt P25491: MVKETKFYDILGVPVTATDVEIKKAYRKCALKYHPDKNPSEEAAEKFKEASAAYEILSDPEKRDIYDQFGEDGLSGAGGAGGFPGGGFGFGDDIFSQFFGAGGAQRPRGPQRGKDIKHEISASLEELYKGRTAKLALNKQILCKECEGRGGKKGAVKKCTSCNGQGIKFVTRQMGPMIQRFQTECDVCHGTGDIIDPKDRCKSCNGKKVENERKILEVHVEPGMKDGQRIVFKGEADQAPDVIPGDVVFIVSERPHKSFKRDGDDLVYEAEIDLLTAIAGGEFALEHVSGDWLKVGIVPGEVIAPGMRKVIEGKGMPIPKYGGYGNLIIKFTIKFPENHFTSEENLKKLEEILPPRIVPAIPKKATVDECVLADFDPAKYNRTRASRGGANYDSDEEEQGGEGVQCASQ

[2] = target: T2, Sse1 with an HA epitope tag at the carboxy terminus (S. cerevisiae) (UniProt P32589); experiment: as above
T2 sequence: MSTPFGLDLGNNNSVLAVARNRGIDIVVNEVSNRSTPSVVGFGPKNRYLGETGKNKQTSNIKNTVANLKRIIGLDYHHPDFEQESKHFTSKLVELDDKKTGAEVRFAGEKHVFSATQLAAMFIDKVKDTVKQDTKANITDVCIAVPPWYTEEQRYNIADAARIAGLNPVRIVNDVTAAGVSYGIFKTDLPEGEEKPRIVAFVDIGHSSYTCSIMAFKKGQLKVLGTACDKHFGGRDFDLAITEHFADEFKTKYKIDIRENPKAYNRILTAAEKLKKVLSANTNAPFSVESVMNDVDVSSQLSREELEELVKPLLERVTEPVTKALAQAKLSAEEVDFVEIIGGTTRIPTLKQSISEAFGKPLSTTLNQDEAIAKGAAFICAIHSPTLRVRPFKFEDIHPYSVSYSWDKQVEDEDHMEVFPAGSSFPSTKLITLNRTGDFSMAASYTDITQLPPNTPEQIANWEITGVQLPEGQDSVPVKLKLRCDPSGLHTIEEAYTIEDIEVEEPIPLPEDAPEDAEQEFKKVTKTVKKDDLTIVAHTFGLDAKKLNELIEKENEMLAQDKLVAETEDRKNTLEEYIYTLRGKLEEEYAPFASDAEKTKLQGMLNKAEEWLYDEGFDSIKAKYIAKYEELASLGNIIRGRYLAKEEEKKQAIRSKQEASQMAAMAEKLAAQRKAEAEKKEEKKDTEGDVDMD

[3] = target: T3, HA-Ste11 (wild type) (S. cerevisiae) (UniProt P23561); experiment: as above
T3 sequence: T1 sequence with A305R

[4] = target: T4, Mtw1-FLAG (S. cerevisiae) (UniProt P39731); experiment: co-IP; yeast extract (200 ug) on anti-Flag M2 magnetic beads, 4°C overnight; 50 mM Na-phosphate pH 8.0, 300 mM NaCl, 0.01% Tween-20; eluted with 3x FLAG peptide; western blot
T4 sequence: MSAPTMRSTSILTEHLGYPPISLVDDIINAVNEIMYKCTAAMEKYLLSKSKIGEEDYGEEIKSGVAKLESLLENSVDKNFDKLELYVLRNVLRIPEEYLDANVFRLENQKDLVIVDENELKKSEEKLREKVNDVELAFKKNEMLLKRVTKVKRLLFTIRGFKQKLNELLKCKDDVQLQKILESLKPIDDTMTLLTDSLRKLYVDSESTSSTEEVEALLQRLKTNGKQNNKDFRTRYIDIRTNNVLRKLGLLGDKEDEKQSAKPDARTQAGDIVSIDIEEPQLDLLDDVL

Measured: binding

Ssa1 (endogenous, detected with anti-Ssa1) (from UniProt P10591 1-642)
binds: all assays above

Ydj1 co-chaperone (from UniProt P25491 1-409)
binds: all assays above

Reference: paper PMC9629621
